From patent US20040054158A1
These are yes or no findings as the source states them, for the method shown. Some entries that bind do so weakly or less than the wild type. Where a sequence is shown, tags or fusion partners need not be part of it.

Biological target: T1, mouse ICOS expressed on COS transfectants (mouse) (UniProt Q9WVS0)
T1 sequence (looked up): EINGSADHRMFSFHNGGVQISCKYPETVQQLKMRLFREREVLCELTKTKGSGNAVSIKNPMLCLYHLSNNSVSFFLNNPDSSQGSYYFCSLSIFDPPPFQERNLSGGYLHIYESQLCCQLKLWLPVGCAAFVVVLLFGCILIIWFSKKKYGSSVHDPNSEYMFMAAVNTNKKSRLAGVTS
Test: flow cytometry on COS transfectants

B1: murine GL50-1Ig fusion protein (Fc fusion)
chain: ETEVGAMVGSNVVLSCIDPHRRHFNLSGLYVYWQIENPEVSVTYYLPYKSPGINVDSSYKNRGHLSLDSMKQGNFSLYLKNVTPQDTQEFTCRVFMNTATELVKILEEVVRLRVAANFSTPVISTSDSSNPGQERTYTCMSKNGYPEPNLYWINTTDNSLIDTALQNNTVYLNKLGLYDVISTLRLPWTSRGDVLCCVENVALHQNITSISQAESFTGNNTKNPQETHNNEEPRGPTIKPCPPCKCPAPNLEGGPSVFIFPPKIKDVLMISLSPIVTCVVVDVSEDDPDVQISWFVNNVEVHTAQTQTHREDYNSTLRVVSALPIQHQDWMSGKAFACAVNNKDLPAPIERTISKPKGSVRAPQVYVLPPPEEEMTKKQVTLTCMVTDFMPEDIYVEWTNNGKTELNYKNTEPVLDSDGSYFMYSKLRVEKKNWVERNSYSCSVVHEGLHNHHTTKSFSRTPGK
- binding: binds
